Source: PubChem BioAssay AID504467 (National Center for Advancing Translational Sciences (NCATS), 2011)
About 7,700 (2.3%) of roughly 330,000 compounds were called active. The shares of active, inactive and inconclusive entries below differ from those in the screen. The call rests on the fitted dose curve; in most records, active means well fitted inhibition curve with a large enough effect; inconclusive means small, poorly fitted or top-dose-only effect, or effect the other way; inactive means flat fitted curve, though single readings scatter. A potency beside an inconclusive call is a rough fit, not a confirmed value.

assay: qHTS screen for small molecules that inhibit ELG1-dependent DNA repair in human embryonic kidney (HEK293T) cells expressing luciferase-tagged ELG1; conditions: HEK293T ELG1-luciferase reporter, luminescence, 16 h, DNA damage induced by 5-fluorouridine; activity change, negative = inhibition: at 46.1 µM (top of the series); further: nearly all actives have a fitted effect of over 55% in size
Summary of the method: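 DMSO vehicle served as the neutral condition. Each well held 2,000 cells given 5-fluorouridine plus compound; after 16 hr at 37 °C/5% CO2, ONE-Glo was added and luciferase measured 30 min later.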
On the % scale 0 is the no-effect control and ±100 the full control effect; potency means the concentration at half of the fitted maximal effect.

Compound	activity change, negative = inhibition	Potency
C[C@H](NC(=O)c1nc[nH]c1C(=O)N[C@@H](Cc1ccccc1)C(=O)OCc1ccccc1)C(=O)OCc1ccccc1	inactive: -4.46%	
CCCCN(C)S(=O)(=O)c1ccc(C(=O)N(CCN(C)C)c2nc3ccc(C)cc3s2)cc1		inconclusive: 29.1 µM [activator, single point]
CC(=C\c1ccccc1)/C=C1/SC(=O)N(CCCC(=O)Nc2ccc(C(=O)O)cc2)C1=O		inconclusive: 29.1 µM [activator, single point]
COc1ccc(N(CC(=O)Nc2nccs2)S(=O)(=O)c2c(C)[nH]c(=O)[nH]c2=O)cc1	inactive: 6.51%	
COc1ccc(S(=O)(=O)N2CCC(C(=O)N[C@@H](C)C(=O)NC3CCCC3)CC2)cc1	inactive: 17.4%	
CCn1c(SCC(=O)Nc2cccc(OC)c2)nc2c(c1=O)SCC2	inactive: 13.5%	
c1ccc(-n2nnnc2SCc2ccccn2)cc1		inconclusive: 18.4 µM [activator, single point]
CCOC(=O)NC(=O)/C(N=Nc1cc(C)cc(C)c1)=C(\C)O		inconclusive: 1.46 µM [inhibitor, partial curve, poor fit]
CC(NC(=O)c1ccco1)C(=O)N1CCCCC1 (stereo not given)	inactive: 18%	
O=C(NNC(=S)Nc1ccc(F)c(Cl)c1)c1ccccc1Br		inconclusive: 16.4 µM [inhibitor, single point]
Cc1cc(C)c(Cc2c(C)nc3c(C(=O)NCc4ccco4)cnn3c2C)c(C)c1		active: 7.31 µM
CCCC(=O)NCCCc1nc2ccccc2n1C(C)C	inactive: 0.184%	
Cc1cnc(C(=O)OCC(=O)NCc2ccc(Cl)cc2)cn1		inconclusive: 20.6 µM [activator, partial curve, poor fit]
O=C(Cc1ccccc1)Nc1cccc(-c2nc3ncccc3o2)c1	inactive: 11.6%	
COC(=O)c1ccc(/C=C(\C#N)c2nc3ccccc3s2)cc1		inconclusive: 23.1 µM [activator, single point]
CN(C)CCCNc1cc(-c2ccccc2)nc2cc(-c3cccc(F)c3)nn12		inconclusive: 16.4 µM [activator, partial curve, poor fit]
COc1ccc(CNC(=O)C2=CC(c3ccc(C)cc3)=NS(=O)(=O)N2C)cc1	inactive: 19.6%	
CCCCC(=O)NC(c1ccc(Cl)cc1Cl)c1ccc2cccnc2c1O (stereo not given)		inconclusive: 3.66 µM [inhibitor, partial curve, poor fit]
Cc1c(C(=O)Nc2cc(S(=O)(=O)N3CCOCC3)ccc2N2CCOCC2)oc2ccccc12		active: 16.4 µM
COc1cc(/C=C(\C#N)c2nc3ccccc3[nH]2)ccc1O		inconclusive: 2.59 µM [activator, full curve]
CCC(=O)N1c2ccccc2C(N(C(=O)CC)c2ccccc2)CC1C (stereo not given)		inconclusive: 20.6 µM [activator, partial curve]
Cc1nc2oc3c(NCC4CCCO4)ncnc3c2c2c1COC(C)(C)C2 (stereo not given)		inconclusive: 13 µM [inhibitor, single point]

Entries of single compounds as entered above:
Cc1c(C(=O)Nc2cc(S(=O)(=O)N3CCOCC3)ccc2N2CCOCC2)oc2ccccc12 is entered as Potency: active: 16.4 µM
CCn1c(SCC(=O)Nc2cccc(OC)c2)nc2c(c1=O)SCC2 is entered as activity change, negative = inhibition: inactive: 13.5%
Cc1cnc(C(=O)OCC(=O)NCc2ccc(Cl)cc2)cn1 is entered as Potency: inconclusive: 20.6 µM [activator, partial curve, poor fit]
COc1ccc(N(CC(=O)Nc2nccs2)S(=O)(=O)c2c(C)[nH]c(=O)[nH]c2=O)cc1 is entered as activity change, negative = inhibition: inactive: 6.51%

The listing continues:

Compound	activity change, negative = inhibition	Potency
COc1ccc(S(=O)(=O)N2CCN(C)CC2)cc1C(=O)Nc1ccccc1	inactive: 5.75%	
Cc1csc(NC(=O)CCCc2cccs2)n1	inactive: 8.08%	
COCCNc1nc(Cl)c(C#N)s1	inactive: -18.2%	
O=c1c2sccc2nc(SCc2cc(=O)n3ccccc3n2)n1Cc1ccccn1		inconclusive: 18.3 µM [activator, partial curve]
Cc1onc(-c2ccccc2)c1C(=O)Nc1sc2c(c1C(N)=O)CCC2	inactive: 0%	
O=C(NCc1ccccn1)C1CCN(S(=O)(=O)N2CCCC2)CC1		inconclusive: 32.6 µM [activator, partial curve, poor fit]
Cc1csc(NC(=O)C(NC(=O)c2ccccc2F)C(C)C)n1 (stereo not given)		inconclusive: 29.1 µM [activator, partial curve, poor fit]
O=C(CCn1nnc2ccccc21)N1CCN(c2ccccc2)CC1		inconclusive: 14.6 µM [activator, partial curve]
COc1ccc(CCN2C(=O)CC(NCc3ccc4c(c3)OCO4)C2=O)cc1OC (stereo not given)	inactive: -2.37%	
CCN1CCCC1CNC(=O)Cn1nc(C)n2c(cc3cc(F)ccc32)c1=O (stereo not given)		inconclusive: 14.6 µM [activator, partial curve, poor fit]
CC(=O)N1CCc2c(sc(NC(=O)CN3C(=O)CCC3=O)c2C(N)=O)C1	inactive: -0.169%	
O=C(NC1CCCCCC1)C1CCN(S(=O)(=O)c2ccccc2)CC1	inactive: 1.58%	
Cc1cc(NC(=O)c2cc(-c3cccnc3)nc3c(C)c(C)ccc23)no1		active: 23.1 µM
O=C(CCC1CCCN(C(=O)c2ccccc2Cl)C1)N1CCN(c2ccccn2)CC1 (stereo not given)		inconclusive: 14.6 µM [inhibitor, partial curve, poor fit]
CN(CC(=O)Nc1cccc2ccccc12)c1ccc(S(=O)(=O)N2CCOCC2)cn1		inconclusive: 14.6 µM [inhibitor, partial curve]
CN(C)C(=O)CSc1nnc(-c2ccc(S(=O)(=O)N3CCCC3)cc2)n1C	inactive: -1.31%	
Fc1cccc(NC(=S)NCc2ccccn2)c1		inconclusive: 20.6 µM [activator, partial curve]
N#Cc1c([N+](=O)[O-])cc([N+](=O)[O-])cc1S(=O)(=O)Cc1ccccc1		active: 15.8 µM
Cc1ccc(NC(=O)Cn2c(=O)n(Cc3ccco3)c(=N)c3c4c(sc32)COC(C)(C)C4)cc1		inconclusive: 20.6 µM [inhibitor, single point]
CC(C)(C)C(=O)NC(=O)Nc1ccccc1C(F)(F)F		inconclusive: 25.9 µM [activator, single point]
COc1ccc(CN(Cc2ccc(OC)cc2)S(=O)(=O)c2ccc(-n3cnnn3)c(C)c2)cc1		inconclusive: 20.6 µM [inhibitor, single point]
Cc1cc2cc3c(cc2nc1SCC(=O)N1CCCC1)OCCO3		inconclusive: 16.4 µM [inhibitor, partial curve, poor fit]
CN(CC(=O)NCc1ccco1)CC(=O)Nc1ccc(F)c(F)c1F		inconclusive: 0.0092 µM [inhibitor, partial curve, poor fit]
CC(=O)N1CCN(C2=NC(=O)/C(=C/c3ccc(OS(=O)(=O)c4ccccc4)cc3)S2)CC1		inconclusive: 16.4 µM [inhibitor, partial curve, poor fit]

Compound	activity change, negative = inhibition	Potency
CCOC(=O)c1ccc(C(=O)OCC)c(NC(=S)Nc2ccc([N+](=O)[O-])cc2OC)c1		inconclusive: 18.4 µM [activator, single point]
COc1cc2cnc(C3=CCCCC3)cc2cc1OC		inconclusive: 23.1 µM [activator, single point]
COc1ccc(Cc2nc3ccc(C(=O)NC(C)c4cn(C)nc4C)cc3o2)cc1 (stereo not given)		inconclusive: 23.1 µM [inhibitor, partial curve]
Cn1c(=O)n(C)c2cc(/C=N/NC(N)=S)ccc21		inconclusive: 23.1 µM [activator, partial curve]
Cc1ccc(OCCn2c(=O)n(C)c3ccccc32)cc1		inconclusive: 20.6 µM [activator, partial curve]
COc1ccccc1NC(=O)COC(=O)c1ccc2ccccc2n1	inactive: -3.32%	
Cc1ccc(C)c(CSc2nc3[nH]ncc3c(=O)[nH]2)c1		inconclusive: 1.64 µM [inhibitor, full curve]
O=C1C=C(c2ccccc2)C[C@H](c2cccs2)[C@H]1n1nnc([N+](=O)[O-])n1		inconclusive: 29.1 µM [inhibitor, single point]
O=C(CC1C[C@H](C(=O)N2CCCCC2)[C@@]2(CCc3ccccc3)c3[nH]c4ccccc4c3CCN2C1=O)NCCCn1ccnc1 (stereo not given in full)	inactive: -4.38%	
CCOC(=O)C1=C(C)Nc2ncnn2C1c1ccccc1F (stereo not given)		inconclusive: 16.4 µM [inhibitor, single point]
CCOCCn1c(=NC(=O)c2ccc(S(=O)(=O)N3CCOCC3)cc2)sc2cc(S(N)(=O)=O)ccc21		active: 18.3 µM
Cc1nc(CSc2nnc3scc(-c4ccc(Cl)cc4)n23)cs1		inconclusive: 16.4 µM [inhibitor, single point]
COc1ccccc1NC(=O)c1ccccc1N(Cc1ccccc1)S(C)(=O)=O	inactive: -6.99%	
Cc1cc(C(=O)COC(=O)c2n[nH]c3ccccc23)c(C)n1CC1CCCO1 (stereo not given)		inconclusive: 0.731 µM [activator, full curve]
Cc1ccccc1OCc1nnc(SCC(=O)Nc2ccc(N3CCOCC3)c(Cl)c2)n1C	inactive: -22.9%	
Cc1ccc2c(COC(=O)C3=COCCO3)cc(=O)oc2c1		inconclusive: 1.3 µM [activator, full curve]
CCOc1ccc(NC(=O)CSc2ncnc3c2sc2ccccc23)cc1		inconclusive: 23.1 µM [activator, single point]
COc1ccc(OCCn2c(N)nc3ccccc32)cc1	inactive: 4.77%	
O=C(N=Nc1c(O)[nH]c2ccc([N+](=O)[O-])cc12)c1cc(-c2ccccc2Cl)nc2ccccc12	inactive: 8.08%	
COc1ccc(CNS(=O)(=O)NCc2ccc(OC)c(OC)c2)cc1OC		inconclusive: 29.1 µM [inhibitor, partial curve, poor fit]
Cn1c(SCC(=O)NCc2ccccc2)ncc(C(=O)Nc2ccccc2)c1=O	inactive: 13.4%	
NS(=O)(=O)c1ccc(NC(=S)Nc2ccc(S(=O)(=O)N3CCCC3)cc2)cc1	inactive: 11.8%	
